Values quoted from earlier work in US12377067B2, “Methods of treating PAH with combinations of ralinepag and other agents” (Arena Pharmaceuticals, Inc., priority 2016, dated 2025).
pKi: −log10 of the molar value. Some of these results come from one statement about several compounds together.

Target: other prostanoid receptors
Details: cited from earlier work

Compound | pKi
CC(C)N(CCCCOCC(=O)O)c1cnc(-c2ccccc2)c(-c2ccccc2)n1 [MRE-269, [4[(5,6diphenylpyrazinyl)(1methylethyl)amino]butoxy]acetic acid, reference compound] | ≤ 5.59
CC(C)N(CCCCOCC(=O)NS(C)(=O)=O)c1cnc(-c2ccccc2)c(-c2ccccc2)n1 [selexipag, 2-{4-[(5,6-diphenylpyrazin-2-yl)(propan-2-yl)amino]butoxy}-N-(methanesulfonyl)acetamide] | ≤ 5.59
